Data as given in PubChem BioAssay AID1259308 (NCATS, 2017).
In all, the deposit lists about 59,000 reagents; below is a part drawn at random. Of all reagents, about 1,510 (2.6%) were called active. 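Calls use total luciferase alone and ignore viability, so some active siRNAs may act by altering cell number.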 The numbers tell different reagents against one gene apart. Further read-outs or replicates are left out here.

Assay: 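Candidate targets for better recombinant protein yield in mammalian cells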 (primary screen)
Cell system: human HEK293 embryonic kidney cells stably expressing firefly luciferase (HEK-CMV-Luc2-Hygro)
Knock-down reagent: single siRNA against human genes, 0.8 pmol siRNA per well
Time to read-out: 72 h
Read-out: 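Luciferase light (ONE-Glo) measured on one replicate plate set and viability (CellTiter-Glo) on the other, scaled to a negative control siRNA, with robust z-scores and luciferase per cell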
Direction: total luciferase, z-score and total luciferase, % of control: higher = more reporter protein produced; luciferase per cell, z-score: higher = more reporter output per viable cell
Call rule: 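Active when the median/MAD z-score for overall luciferase is greater than 3; a gene was taken forward for validation with new siRNAs if at least two of its three siRNAs passed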
Calls: active = raised luciferase; inactive = no rise

Target gene | reagent | total luciferase, z-score | total luciferase, % of control | luciferase per cell, z-score | Call
ZNRF1 | 1 | 1.14 | 105 | 1.61 | inactive
ZNRF1 | 2 | -0.329 | 75.3 | -0.448 | inactive
ZNRF1 | 3 | -0.267 | 76.6 | -0.395 | inactive
APCDD1 | 1 | 0.433 | 90.5 | 0.219 | inactive
APCDD1 | 2 | -1.59 | 50.3 | -1.52 | inactive
APCDD1 | 3 | -0.561 | 70.7 | 1.31 | inactive
PIN4P1 | 1 | 1.91 | 120 | 1.8 | inactive
PIN4P1 | 2 | 1.55 | 113 | 1.45 | inactive
PIN4P1 | 3 | -1.16 | 58.8 | -0.985 | inactive
SLC22A4 | 1 | -1.16 | 58.8 | -1.58 | inactive
SLC22A4 | 2 | 0.405 | 89.9 | 0.577 | inactive
SLC22A4 | 3 | 0.714 | 96.1 | 1.66 | inactive
SLC35G1 | 1 | 1.67 | 115 | 1.01 | inactive
SLC35G1 | 2 | 0.538 | 92.6 | 0.29 | inactive
SLC35G1 | 3 | 0.31 | 88.1 | -0.319 | inactive
FARP1 | 1 | 0.449 | 90.8 | 0.853 | inactive
FARP1 | 2 | -0.281 | 76.3 | -0.97 | inactive
FARP1 | 3 | 0.182 | 85.5 | 0.17 | inactive
ISCA1P1 | 1 | -0.215 | 77.6 | 0.0893 | inactive
ISCA1P1 | 2 | 0.44 | 90.6 | 0.591 | inactive
ISCA1P1 | 3 | 0.271 | 87.3 | -0.267 | inactive
CCR2 | 1 | -0.532 | 71.3 | -1.06 | inactive
CCR2 | 2 | 3.22 | 146 | 3.06 | active
CCR2 | 3 | -0.236 | 77.2 | -0.346 | inactive
CCR2 | 4 | -0.988 | 62.2 | -0.261 | inactive
CCR2 | 5 | 0.116 | 84.2 | 1.15 | inactive
CCR2 | 6 | 0.579 | 93.4 | 1.35 | inactive

Only “luciferase per cell, z-score”, for 4 of the entries above:
ISCA1P1 #1	0.0893
ISCA1P1 #2	0.591
ISCA1P1 #3	-0.267
CCR2 #1	-1.06
